Data from PubChem BioAssay AID588497 (NMMLSC, 2011).
The campaign covered roughly 360,000 compounds. About 780 (0.22%) were called active. The inconclusive results got no clear call from the source; some entries with a clear call stand among them for comparison. No stated cut-off is given here; in the data, active means inhibition above about 35% (passing the limit was not always enough); inconclusive means no clear call, values can overlap the other calls.

Each compound was assayed on Botulinum neurotoxin type F light chain protease (Clostridium botulinum) (assay: BoNT/F light chain protease inhibitors, primary screen, biochemical, flow cytometry, MLPCN library (AID 588497; further: plate controls were buffer without enzyme for full effect and enzyme alone for no effect)). Conditions: Multiplex microsphere protease cleavage assay, at 10 µM, stronger effect = higher value.
`COc1ccc(OC)c(S(=O)(=O)NCc2ccccn2)c1` was tested, and the inhibition was inconclusive: 25.5%. With `CCCN(C(=O)c1cccc(S(=O)(=O)N2CCN(C)CC2)c1)c1c(N)n(Cc2ccccc2)c(=O)[nH]c1=O` the inhibition was inconclusive: -1.6%. For `O=S(=O)(Nc1cc(Cl)ccc1N1CCCCC1)c1cccs1`, the inhibition was inconclusive: -25.5%. With `O=C(NCC(c1cccs1)N1CCOCC1)c1cc2ccccc2oc1=O` (stereo not given) the inhibition was inactive: -5.6%. With `CCc1c(C(C)S(=O)(=O)c2ccc(C)cc2)[nH]c(=O)n1-c1ccc(C)cc1` (stereo not given) the inhibition was inconclusive: -9.4%. With `COc1ccc(CC(=O)N(C)C2CCCN(Cc3ccccc3F)C2)cc1OC` (stereo not given) the inhibition was inconclusive: 2.3%. In the case of `COc1cc(OC)c(Cl)cc1N`, the inhibition is reported as inconclusive: -53.9%. In the case of `Cn1cccc1C(=O)NCc1ccccn1`, the inhibition is reported as inconclusive: -11.7%. `O=C(O)Cn1c2ccccc2c2n[nH]c(=S)nc21` was tested, and the inhibition was inconclusive: -23.7%. In the case of `O=C(NNC(=O)c1ccc2ccccc2c1O)c1cccs1`, the inhibition is reported as inconclusive: -6.1%. With `S=c1[nH]nc(Cc2ccccc2)n1-c1ccccc1` the inhibition was inactive: 1.1%. `CCCOc1ccc(/C=N/NC(=O)CN2CCCCC2)cc1` was tested, and the inhibition was inconclusive: -52.1%. With `COc1cccc(OCC(=O)Nc2ccncc2)c1` the inhibition was inconclusive: 34.9%. `COc1cc2c(cc1OC)CN(S(=O)(=O)c1ccc3c(c1)OCCO3)CC2` was tested, and the inhibition was inconclusive: -8.1%. With `CCCNC(=S)N1CCC(NC(=O)c2ccc(OC)cc2)CC1` the inhibition was inconclusive: -25.9%. In the case of `N#Cc1cnc(Nc2ccc(F)cc2)nc1N`, the inhibition is reported as inconclusive: 5.7%. For `O=C(Nc1nccs1)c1cc([N+](=O)[O-])ccc1Cl`, the inhibition was inconclusive: 11.1%. In the case of `Cc1ccc2c(c1)Sc1c(ccc3ccccc13)N2`, the inhibition is reported as inactive: 4.2%. In the case of `CS(=O)(=O)Nc1ccc(C2=NN(C(=O)CCCC(=O)O)C(c3cccs3)C2)cc1` (stereo not given), the inhibition is reported as active: 36.8%. In the case of `CNc1nc(Oc2cccc(F)c2)c2sccc2n1`, the inhibition is reported as inactive: 4%. With `Cc1ccc(-n2nc(C(=O)O)c(C)c(C#N)c2=O)cc1Cl` the inhibition was inconclusive: -2.1%. For `CCOc1ccccc1N1CCN(CC(=O)NC(C)c2ccccc2)CC1` (stereo not given), the inhibition was inconclusive: -34.7%. For `Cc1cc([N+](=O)[O-])nn1CC(=O)N/N=C/c1ccccc1Br`, the inhibition was inconclusive: 15.9%. For `O=C(Cc1nc(-c2cnccn2)no1)NNC(=O)Nc1ccccc1`, the inhibition was inconclusive: -40.8%. For `CN1CCN(C(=O)c2ccc(NS(=O)(=O)c3cccc([N+](=O)[O-])c3)cc2)CC1`, the inhibition was inactive: -3%. With `CC(C(=O)NCC1CCCO1)c1ccc([N+](=O)[O-])cc1` (stereo not given) the inhibition was inactive: -2.2%. `O=C1[C@@H]2[C@H]3CC[C@H](C3)[C@@H]2C(=O)N1O` was tested, and the inhibition was inconclusive: -104%. `O=C(CN1CCOCC1)NCCc1ccccc1` was tested, and the inhibition was inactive: 6.8%. In the case of `c1ccc(-c2nccnc2-c2ccccc2)cc1`, the inhibition is reported as inconclusive: -5%. `S=c1[nH]nc(C2CCCCC2)n1/N=C/c1ccc(Br)s1` was tested, and the inhibition was active: 38.7%. For `COc1ccc(/C=N\NC(=O)COc2ccccc2)c(C(=O)O)c1OC`, the inhibition was inactive: -3.7%. `COC(=O)N/N=C/c1ccccc1OCCOc1ccc(OC)cc1` was tested, and the inhibition was inconclusive: 16.7%. With `COc1ccc(C(C#N)=C2C=CC(=NO)C=C2)cc1` the inhibition was inconclusive: 32.7%. In the case of `O=C(c1ccccc1)N1CCN(Cc2cccc(Oc3ccccc3)c2)CC1`, the inhibition is reported as active: 38.2%. For `O=C(CSc1nnc(CNC(=O)c2ccco2)o1)c1ccccc1`, the inhibition was inconclusive: 9.3%. `CCC(=O)Nc1cc(C(=O)OC(C(=O)c2ccc(C)c(C)c2)c2ccccc2)ccc1C` (stereo not given) was tested, and the inhibition was inconclusive: -20.7%. `CCCn1c(=O)c(C(=O)NCc2ccccc2Cl)c(O)c2ccccc21` was tested, and the inhibition was inconclusive: -37.7%. For `CC(=O)C1=C(C)NC(C)=C(C(C)=O)C1c1cccs1`, the inhibition was inconclusive: 20.1%. `Cc1cc(N)n(-c2ccccn2)n1` was tested, and the inhibition was inconclusive: 10.5%. For `CC(CN1CCCCC1)OC(=O)/C=C/c1ccccc1` (stereo not given), the inhibition was active: 36.2%. For `O=C1NC(c2ccc(Cl)c([N+](=O)[O-])c2)Nc2ccccc21` (stereo not given), the inhibition was inactive: -1.5%. With `CN(C)CCC(O)c1ccccc1` (stereo not given) the inhibition was inconclusive: 20.2%. For `Cc1onc(-c2ccccc2)c1C(=O)NNC(=S)NC(=O)c1ccc2c(c1)OCO2`, the inhibition was inconclusive: 10.8%. In the case of `COc1ccc(C=O)cc1CSc1ccccn1`, the inhibition is reported as inconclusive: -59.1%. In the case of `O=C(O)C(Oc1ccc2c3c(c(=O)oc2c1)CCC3)c1ccccc1` (stereo not given), the inhibition is reported as inconclusive: -44.4%. With `COCCCNC(=O)C1CC(=O)N(CCc2ccc(F)cc2)C1` (stereo not given) the inhibition was inconclusive: 2.1%. With `Cc1ccc(NC(=S)Nc2cc(C(=O)O)ccc2N2CC3CC(C2)c2cccc(=O)n2C3)cc1C` (stereo not given) the inhibition was inactive: -9.7%. In the case of `Cc1cccc(C(=O)NNC(=O)c2ccc(NC(=O)C(C)(C)C)cc2)c1`, the inhibition is reported as inconclusive: 3.2%. For `Cc1cccc(OCCCC(=O)NC2CCCCC2)c1`, the inhibition was inconclusive: 19.7%. `CCNC(=S)Nc1cc2oc3ccccc3c2cc1OC` was tested, and the inhibition was inactive: 6.1%. With `Cc1cc(C)nc(N2CCCC(C(=O)NC(C)C)C2)n1` (stereo not given) the inhibition was inactive: -1.7%. For `CC1(C(=O)NNC(=O)c2cccc([N+](=O)[O-])c2)CC1(Br)Br` (stereo not given), the inhibition was inactive: 4.3%. `c1ccc(CNc2nc(N3CCN(Cc4ccccc4)CC3)nc3ccccc23)cc1` was tested, and the inhibition was inconclusive: -14.3%. With `CCCCn1c(=O)n(C)c(=O)c2c3c(sc21)COC(C)(C)C3` the inhibition was inconclusive: 24.8%. `O=C(CCCCCN1C(=O)c2cccc3cccc(c23)C1=O)NCCCO` was tested, and the inhibition was inconclusive: -0.5%. `CN(C)C=NC(=O)c1[nH]c2ccc(Cl)cc2c1-c1ccccc1` was tested, and the inhibition was inactive: -12.8%. `Brc1cc(-c2ccccc2)nc(-c2ccccc2)n1` was tested, and the inhibition was inconclusive: -21.4%. With `O=C(Cc1ccc(Br)cc1)N1CCN(c2ccccc2O)CC1` the inhibition was inconclusive: -24.7%. For `COC(=O)Cc1ccc(NC(=S)NNC(=O)C2CC2)cc1`, the inhibition was inconclusive: -16.3%. `Cc1nc(C2COc3ccccc3O2)sc1C(=O)O` (stereo not given) was tested, and the inhibition was inconclusive: -50.2%. For `Cc1oc(S(=O)(=O)N2CCCCC2)cc1NC(=O)Nc1ccc(F)cc1`, the inhibition was inconclusive: 177%. With `CCC(=O)Nc1ccc(C(=O)COC(=O)C(CCSC)NC(=O)COc2ccccc2)cc1` (stereo not given) the inhibition was inconclusive: -3.9%. With `Fc1cccc(-c2ncc(-c3ccccc3)o2)c1` the inhibition was inactive: 1.5%. With `COc1cc(CNc2nc3ccccc3s2)cc(OC)c1OC` the inhibition was inconclusive: -11.2%. In the case of `COc1ccc(/C=N/NC(=O)CCn2nnc3ccccc32)cc1`, the inhibition is reported as inconclusive: -47.1%. For `O=C(Nc1ccc(Cl)c(Cl)c1)c1ccc(Cl)c(Cl)c1`, the inhibition was inconclusive: -2.6%. `CCOc1ccc(NC(=O)C(CC(=O)O)Cc2ccc(C)cc2)cc1` (stereo not given) was tested, and the inhibition was inconclusive: 5.7%. For `CCN1C(=O)c2cccc3c(S(=O)(=O)N(C(C)=O)c4ccc(OC(C)=O)cc4)ccc1c23`, the inhibition was inactive: -16.9%. For `COc1ccc(C(=O)C[N+]2(C)CCOCC2)cc1`, the inhibition was active: 45.7%. In the case of `O=c1[nH]c2ccc(S(=O)(=O)Nc3ccc(Cl)cc3)cc2[nH]1`, the inhibition is reported as inconclusive: -5.5%. With `CCOC(=O)N1CCN(C(=O)CCc2ccccc2)CC1` the inhibition was inconclusive: -2.7%. In the case of `Cc1ccc(S(=O)(=O)N2CCN(c3ccccc3)CC2)cc1`, the inhibition is reported as inconclusive: 26.1%. For `Cc1csc(=O)n1CC(=O)OCC(=O)NNC(=O)c1ccc([N+](=O)[O-])cc1`, the inhibition was inconclusive: 11.3%. For `O=C1CC(N2CCN(c3nc4ccccc4s3)CC2)C(=O)N1c1cccc(F)c1` (stereo not given), the inhibition was inactive: -1.2%. `COc1ccc2c(c1)c(CCN)c(C)n2Cc1ccccc1` was tested, and the inhibition was inconclusive: -24.3%. `CCOC(=O)N1CCN(C(=O)C2CCN(Cc3ccc(O)c(OCC)c3)CC2)CC1` was tested, and the inhibition was inactive: -2.5%. In the case of `Cc1cccc(NC(=O)C2CCN(C(=O)c3ccc(F)cc3)CC2)n1`, the inhibition is reported as inconclusive: 5.4%. For `COC(=O)C1=C(C)N(C)C(=O)NC1c1cccc2ccccc12` (stereo not given), the inhibition was inconclusive: -16.7%. For `O=C(C[N+]12CCC(CC1)C(C(O)(c1ccccc1)c1ccccc1)C2)c1ccc(Br)cc1` (stereo not given), the inhibition was inconclusive: -8.2%. With `Cc1ccccc1-c1n[nH]c(=S)n1/N=C/C=C/c1ccco1` the inhibition was inconclusive: -36%. For `N#Cc1ccc(Oc2ccc(C(F)(F)F)cc2NC(=O)c2ccc(F)cc2)cc1`, the inhibition was inconclusive: 31%. `O=C(CCCN1C(=O)c2ccccc2C1=O)NCc1ccco1` was tested, and the inhibition was inactive: 13.4%. For `Cc1cc(C)c(C)c(S(=O)(=O)N2CCN(CC(=O)c3c(N)n(Cc4ccccc4)c(=O)n(C)c3=O)CC2)c1C`, the inhibition was inactive: 6.4%. For `CCCCOCCCNCc1cccn1CCN1CCOCC1`, the inhibition was inconclusive: 19.1%. In the case of `COc1ccccc1N1CCN(C(=O)c2coc(=O)c(Br)c2)CC1`, the inhibition is reported as inactive: 29.6%. With `CC(=O)Nc1ccc(C(=O)N2CCCCC2c2cc(C(=O)NCc3cccnc3)no2)cc1` (stereo not given) the inhibition was inactive: -7.1%. In the case of `CCNc1nc(Oc2ccc(C(=O)OC)cc2)nc(N(C)C)n1`, the inhibition is reported as inactive: 0.7%. With `OC(c1nc2ccccc2[nH]1)C(O)c1nc2ccccc2[nH]1` (stereo not given) the inhibition was inconclusive: -65.6%. `Nc1ccc(-n2nc(C(F)(F)F)cc2C(F)(F)F)cc1` was tested, and the inhibition was inconclusive: 131%. With `OCCCNC(=S)Nc1ccc(Br)cc1Cl` the inhibition was inconclusive: -53.7%. For `CN(C)/C=C/C(=O)c1cnc(-c2ccccn2)s1`, the inhibition was inactive: -2%. In the case of `COc1cccc(OC)c1C(=O)N1CCN(Cc2cccnc2)CC1`, the inhibition is reported as inconclusive: -7.1%. `COc1cccc(C(=O)NCCN2C(=O)S/C(=C/c3cccs3)C2=O)c1OC` was tested, and the inhibition was inactive: -3.8%. For `CCOC(=O)C1CCN(S(=O)(=O)c2ccccc2[N+](=O)[O-])CC1`, the inhibition was inconclusive: -0.3%. For `CCOc1ccc(-c2cc(C(=O)N3CCCC3)c3ccccc3n2)cc1`, the inhibition was inactive: -0.3%.
